Test results taken from PMC7806720, “Restoration of the reduced CLSP activity alleviates memory impairment in Alzheimer disease” (Translational Psychiatry, 2021).
No constants are given. Whether binding was seen depends on the method and setting. Binding seen in cells or lysates may run through a third protein. Some binding calls cover weakened binding; strength is not graded here.

By UniProt entry, the sequences of proteins in these tests, tags left out. Where a name states a change or a piece, a line headed by the entry shows the natural chain unless it says otherwise. Residues count along the entry.
UniProt Q9NZT1: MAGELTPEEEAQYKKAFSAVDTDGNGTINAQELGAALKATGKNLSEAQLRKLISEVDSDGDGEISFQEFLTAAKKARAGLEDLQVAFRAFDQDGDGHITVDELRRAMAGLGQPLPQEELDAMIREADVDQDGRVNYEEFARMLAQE
UniProt Q15848, residues 19-244: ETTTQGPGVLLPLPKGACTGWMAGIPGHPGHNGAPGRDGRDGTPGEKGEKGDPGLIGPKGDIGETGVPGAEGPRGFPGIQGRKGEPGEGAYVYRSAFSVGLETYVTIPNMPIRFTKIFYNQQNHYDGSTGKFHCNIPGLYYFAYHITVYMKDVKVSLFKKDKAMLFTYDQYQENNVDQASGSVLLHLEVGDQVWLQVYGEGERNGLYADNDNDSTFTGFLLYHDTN
UniProt P02649, residues 19-317: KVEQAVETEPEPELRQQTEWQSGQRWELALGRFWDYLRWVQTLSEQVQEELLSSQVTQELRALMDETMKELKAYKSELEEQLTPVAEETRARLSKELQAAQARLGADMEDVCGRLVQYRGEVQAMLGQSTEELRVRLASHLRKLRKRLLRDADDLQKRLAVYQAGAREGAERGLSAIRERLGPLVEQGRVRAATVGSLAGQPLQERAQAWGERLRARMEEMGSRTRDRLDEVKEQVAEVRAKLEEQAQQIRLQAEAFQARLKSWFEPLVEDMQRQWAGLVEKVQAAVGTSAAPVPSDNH

How the values were obtained:
[1] = target: calmodulin-like skin protein (CLSP), C-terminally MycHis-tagged (human) (UniProt Q9NZT1); assay: pull-down; CLSP-conjugated sepharose 4B beads; ApoE and adiponectin each in the presence or absence of the other (Supplementary Fig. S7A); details not shown
[2] = target: calmodulin-like skin protein (CLSP), C-terminally MycHis-tagged (human) (UniProt Q9NZT1); assay: pull-down; lysates of F11 cells overexpressing C-terminally HA-tagged proteins mixed with CLSP-MycHis-conjugated sepharose 4B, 4 °C overnight; precipitates immunoblotted with HA and myc antibodies; only the target purified

Row | Substance | binding [1] | binding [2]
1 | adiponectin (pull-down of Supplementary Fig. S7A) (from UniProt Q15848 19-244) | binds | 
2 | adiponectin, C-terminally tagged with HA (from UniProt Q15848 19-244) |  | binds
3 | apolipoprotein E3, C-terminally tagged with HA (from UniProt P02649 19-317) |  | binds
